In paper PMC9501056:

How the values were obtained:
[1] = target: T1, SSIIa (Oryza sativa subsp. indica cv. IR36 (endogenous in developing seeds)) (UniProt P0C586); test: co-IP; soluble proteins of developing seeds of WT (IR36) at 10 DAF incubated with isozyme-specific antibodies and protein A magnetic beads; washed with PBS pH 7.4; Western blotting
T1 sequence: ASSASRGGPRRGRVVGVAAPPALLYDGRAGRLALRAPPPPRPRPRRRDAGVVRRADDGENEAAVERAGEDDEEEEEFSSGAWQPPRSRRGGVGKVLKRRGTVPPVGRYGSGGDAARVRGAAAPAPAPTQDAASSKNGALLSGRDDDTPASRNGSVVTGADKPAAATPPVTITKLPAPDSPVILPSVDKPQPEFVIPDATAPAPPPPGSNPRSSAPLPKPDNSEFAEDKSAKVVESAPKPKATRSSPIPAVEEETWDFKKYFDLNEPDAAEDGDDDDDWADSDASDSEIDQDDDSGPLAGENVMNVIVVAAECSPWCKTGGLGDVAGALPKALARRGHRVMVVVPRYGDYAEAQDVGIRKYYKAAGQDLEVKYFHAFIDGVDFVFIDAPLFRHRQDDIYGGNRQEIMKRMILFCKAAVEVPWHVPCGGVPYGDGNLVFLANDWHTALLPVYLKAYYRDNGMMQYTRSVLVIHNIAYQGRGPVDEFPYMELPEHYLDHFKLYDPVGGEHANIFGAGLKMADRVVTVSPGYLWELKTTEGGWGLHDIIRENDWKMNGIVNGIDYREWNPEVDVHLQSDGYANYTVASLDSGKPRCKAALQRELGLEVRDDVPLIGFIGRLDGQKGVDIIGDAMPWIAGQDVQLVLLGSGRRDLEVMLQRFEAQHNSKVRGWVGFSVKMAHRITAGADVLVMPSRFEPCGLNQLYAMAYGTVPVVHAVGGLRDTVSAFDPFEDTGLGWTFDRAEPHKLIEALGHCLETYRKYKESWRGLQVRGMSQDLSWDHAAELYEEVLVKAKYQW

[2] = target: T2, SSI (Oryza sativa subsp. indica cv. IR36 (endogenous in developing seeds)) (UniProt A2Y9M4); test: as above
T2 sequence: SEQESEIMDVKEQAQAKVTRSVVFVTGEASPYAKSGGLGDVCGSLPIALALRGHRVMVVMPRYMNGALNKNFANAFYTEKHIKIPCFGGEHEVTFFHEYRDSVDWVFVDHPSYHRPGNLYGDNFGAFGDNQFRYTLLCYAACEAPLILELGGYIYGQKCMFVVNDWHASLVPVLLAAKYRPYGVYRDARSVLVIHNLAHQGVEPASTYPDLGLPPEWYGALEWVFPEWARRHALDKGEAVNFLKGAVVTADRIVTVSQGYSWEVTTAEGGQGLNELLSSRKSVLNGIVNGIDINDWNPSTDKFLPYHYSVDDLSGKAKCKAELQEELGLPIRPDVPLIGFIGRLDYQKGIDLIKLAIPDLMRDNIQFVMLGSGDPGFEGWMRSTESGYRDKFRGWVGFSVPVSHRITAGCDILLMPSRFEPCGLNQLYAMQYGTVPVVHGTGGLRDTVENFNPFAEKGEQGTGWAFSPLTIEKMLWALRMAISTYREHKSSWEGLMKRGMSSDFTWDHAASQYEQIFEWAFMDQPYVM

[3] = target: T3, BEI (Oryza sativa subsp. indica cv. IR36 (endogenous in developing seeds)) (UniProt Q01401); test: as above
T3 sequence: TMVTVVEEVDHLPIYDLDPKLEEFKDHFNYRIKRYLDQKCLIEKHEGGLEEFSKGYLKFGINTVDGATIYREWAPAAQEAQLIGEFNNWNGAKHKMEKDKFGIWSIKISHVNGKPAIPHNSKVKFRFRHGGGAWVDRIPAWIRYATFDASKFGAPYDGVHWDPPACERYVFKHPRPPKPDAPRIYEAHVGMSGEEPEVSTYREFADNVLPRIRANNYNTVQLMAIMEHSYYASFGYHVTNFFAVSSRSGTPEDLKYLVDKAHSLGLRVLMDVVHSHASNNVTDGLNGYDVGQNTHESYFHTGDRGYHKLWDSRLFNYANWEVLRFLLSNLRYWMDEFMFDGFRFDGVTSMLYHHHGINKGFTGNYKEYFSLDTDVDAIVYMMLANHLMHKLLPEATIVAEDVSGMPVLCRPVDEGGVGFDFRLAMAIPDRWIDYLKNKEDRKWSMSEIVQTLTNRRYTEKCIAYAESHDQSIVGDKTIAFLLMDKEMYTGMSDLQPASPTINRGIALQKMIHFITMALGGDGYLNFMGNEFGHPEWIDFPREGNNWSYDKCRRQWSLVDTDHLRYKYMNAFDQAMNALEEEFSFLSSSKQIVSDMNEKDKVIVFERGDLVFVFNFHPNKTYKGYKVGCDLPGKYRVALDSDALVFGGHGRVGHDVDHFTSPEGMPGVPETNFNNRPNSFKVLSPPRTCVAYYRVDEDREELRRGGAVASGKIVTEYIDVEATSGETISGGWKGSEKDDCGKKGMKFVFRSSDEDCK

[4] = target: T1, SSIIa (Oryza sativa subsp. indica cv. IR36 (endogenous in developing seeds)); test: co-IP; soluble proteins of developing seeds of WT (IR36) at 5 DAF incubated with isozyme-specific antibodies and protein A magnetic beads; washed with PBS pH 7.4; Western blotting
[5] = target: T2, SSI (Oryza sativa subsp. indica cv. IR36 (endogenous in developing seeds)); test: as above
[6] = target: T3, BEI (Oryza sativa subsp. indica cv. IR36 (endogenous in developing seeds)); test: as above
[7] = target: T1, SSIIa (Oryza sativa subsp. indica cv. IR36 (endogenous in developing seeds)); test: co-IP; soluble proteins of developing seeds of WT (IR36) at 15 DAF incubated with isozyme-specific antibodies and protein A magnetic beads; washed with PBS pH 7.4; Western blotting
[8] = target: T2, SSI (Oryza sativa subsp. indica cv. IR36 (endogenous in developing seeds)); test: as above
[9] = target: T3, BEI (Oryza sativa subsp. indica cv. IR36 (endogenous in developing seeds)); test: as above
[10] = target: T1, SSIIa (Oryza sativa subsp. indica cv. IR36 (endogenous in developing seeds)); test: co-IP; soluble proteins of developing seeds of the be2b mutant at 15 DAF incubated with isozyme-specific antibodies and protein A magnetic beads; washed with PBS pH 7.4; Western blotting
[11] = target: T2, SSI (Oryza sativa subsp. indica cv. IR36 (endogenous in developing seeds)); test: as above
[12] = target: BEIIa (Oryza sativa subsp. indica cv. IR36 (endogenous in developing seeds)); test: co-IP; soluble proteins of developing seeds of the be2b mutant at 10 DAF incubated with isozyme-specific antibodies and protein A magnetic beads; washed with PBS pH 7.4; Western blotting
[13] = target: SSIVb (Oryza sativa subsp. indica cv. IR36 (endogenous in developing seeds)); test: as above
[14] = target: BEIIa (Oryza sativa subsp. indica cv. IR36 (endogenous in developing seeds)); test: co-IP; soluble proteins of developing seeds of WT (IR36) at 10 DAF incubated with isozyme-specific antibodies and protein A magnetic beads; washed with PBS pH 7.4; Western blotting
[15] = target: SSIVb (Oryza sativa subsp. indica cv. IR36 (endogenous in developing seeds)); test: as above
[16] = target: BEIIa (Oryza sativa subsp. indica cv. IR36 (endogenous in developing seeds)); test: co-IP; soluble proteins of developing seeds of the be2b mutant at 5 DAF incubated with isozyme-specific antibodies and protein A magnetic beads; washed with PBS pH 7.4; Western blotting
[17] = target: SSIVb (Oryza sativa subsp. indica cv. IR36 (endogenous in developing seeds)); test: as above
[18] = target: BEIIa (Oryza sativa subsp. indica cv. IR36 (endogenous in developing seeds)); test: co-IP; soluble proteins of developing seeds of the be2b mutant at 15 DAF incubated with isozyme-specific antibodies and protein A magnetic beads; washed with PBS pH 7.4; Western blotting
[19] = target: SSIVb (Oryza sativa subsp. indica cv. IR36 (endogenous in developing seeds)); test: as above
[20] = target: BEIIa (Oryza sativa subsp. indica cv. IR36 (endogenous in developing seeds)); test: co-IP; soluble proteins of developing seeds of WT (IR36) at 5 DAF incubated with isozyme-specific antibodies and protein A magnetic beads; washed with PBS pH 7.4; Western blotting
[21] = target: SSIVb (Oryza sativa subsp. indica cv. IR36 (endogenous in developing seeds)); test: as above
[22] = target: BEIIa (Oryza sativa subsp. indica cv. IR36 (endogenous in developing seeds)); test: co-IP; soluble proteins of developing seeds of WT (IR36) at 15 DAF incubated with isozyme-specific antibodies and protein A magnetic beads; washed with PBS pH 7.4; Western blotting
[23] = target: SSIVb (Oryza sativa subsp. indica cv. IR36 (endogenous in developing seeds)); test: as above
[24] = target: BEIIb (Oryza sativa subsp. indica cv. IR36 (endogenous in developing seeds)); test: as above

Molecule: BEIIb (enzyme)
- binding [1]: binds
- binding [2]: binds
- binding [3]: binds
- binding [4]: binds weakly
- binding [5]: binds weakly
- binding [6]: binds weakly
- binding [7]: binds
- binding [8]: binds
- binding [9]: binds weakly

Molecule: PUL (enzyme)
- binding [10]: binds weakly
- binding [11]: binds
- binding [1]: binds weakly
- binding [2]: binds
- binding [3]: binds
- binding [7]: binds weakly
- binding [8]: binds
- binding [9]: binds

B1: ISA1 (enzyme, UniProt D0TZF0 55-803)
chain: SVASAVEVGVGEDEEEGVEEEEEEVEAVVMPERYALGGACRVLAGMPAPLGATALDGGVNFAVYSAGASAASLCLFTPDDLEADEVTEEVPLDPLFNRTGNVWHVFIEGELHNMLYGYRFDGMFAPHCGQYFDVSNVVVDPYAKAVISRGEYGVPGPGGDCWPQMAGMIPLPYSTFDWQGDLPLRYPQKDLVIYEMHLRGFTKHSSSNVEHPGTYIGAISKLDYLKELGVNCVELMPCHEFNELEYFSCSSKMNFWGYSTINFFSPMIRYSSGGIRNCGRDAINEFKTFVREAHKRGIEVIMDVVFNHTAEGNEKGPILSFRGIDNSTYYMLAPKGEFYNYSGCGNTFNCNHPVVREFIVDCLRYWVTEMHVDGFRFDLASIMTRGCSLWDPVNVYGSPVEGDMTTTGTPLATPPLIDMISNDPILGDVKLIAEAWDAGGLYQVGQFPHWKIWSEWNGKYRDIVRQFIKGTDGFAGGFAECLCGSPHLYQAGGRKPWHSINFVCAHDGFTLADLVTYNKKYNSSNGEDNRDGENHNLSWNCGEEGEFAGLSVKRLRKRQMRNFFVSLMVSQGVPMFYMGDEYGHTKGGNNNTYCHDHYVNYFRWDKKEESSDLQRFCSLMTKFRKQCESLGLADFPTAQRLHWHGHQPGKPDWSETSRFVAFSTKDETKGEIYVAFNASHLPAVVGLPERPGYRWEPLVDTGKPAPYDFLTDDLPDRAHAVHLFSHFLNSNLYPMLSYSSIILELQPDD
- binding [12]: no binding
- binding [13]: no binding
- binding [14]: no binding
- binding [15]: no binding
- binding [16]: no binding
- binding [17]: no binding
- binding [18]: no binding
- binding [19]: no binding
- binding [20]: no binding
- binding [21]: no binding
- binding [22]: no binding
- binding [23]: no binding
- binding [24]: binds weakly

No constants are given. Whether binding was seen depends on the method and setting. Binding seen in cells or lysates may run through a third protein. For part of these data: Binding calls can cover weak binding; strength is not graded here.
